# Article PMC6309994
# Positions count from the first letter of the chain named. These are yes or no findings as the source states them, for the method shown. Some entries that bind do so weakly or less than the wild type.
# B1: mouse RNase H2 subunit B (Rnaseh2b) (protein, UniProt Q80ZV0 1-308)
# chain: MAGGRDRGDLAARQLVFLLPEHLKDASKKKKKSSLLFVKLANPHSGEGATYLIDMCLQQLFEIKVFKEKHHSWFINQSVQSGGLLHFATPMDPLFLLLHYLLKAGKEGKYQPLDQVVVDDTFPDCTLLLRFPELEKSLRHVTEEKEVNSKKYYKYSSEKTLKWLEKKVNQTVVALKANNVNVGARVQSSAYFSGGQVSRDKEEDYVRYAHGLISDYIPKELSDDLSKFLKLPEPPASLTNPPSKKLKLSDEPVEAKEDYTKFNTKDLKTGKKNSKMTAAQKALAKVDKSGMKSIDAFFGAKNKKTGKI
# B2: mouse RNase H2 subunit C (Rnaseh2c) (protein, UniProt Q9CQ18 1-166)
# chain: MKNPEEAADGKQRIHLRPGSLRGAAPAKLHLLPCDVLVSRPAPVDRFFTPAVRHDADGLQASFRGRGLRGEEVAVPPGFAGFVMVTEEKGEGLIGKLNFSGDAEDKADEAQEPLERDFDRLIGATGSFSHFTLWGLETVPGPDAKVHRALGWPSLAAAIHAQVPED
# Tests used:
# [1] = molecular target: T1, mouse RNase H2 subunit A with the RED substitutions (P40D and Y211A) (mouse) (UniProt Q9CWY8); assay: co-purification of co-expressed subunits, SDS-PAGE; RNase H2^RED expressed in E. coli, all three subunits His-tagged, purified to near homogeneity; bands seen by SDS-PAGE (Figure S1A); both purified
# T1 sequence: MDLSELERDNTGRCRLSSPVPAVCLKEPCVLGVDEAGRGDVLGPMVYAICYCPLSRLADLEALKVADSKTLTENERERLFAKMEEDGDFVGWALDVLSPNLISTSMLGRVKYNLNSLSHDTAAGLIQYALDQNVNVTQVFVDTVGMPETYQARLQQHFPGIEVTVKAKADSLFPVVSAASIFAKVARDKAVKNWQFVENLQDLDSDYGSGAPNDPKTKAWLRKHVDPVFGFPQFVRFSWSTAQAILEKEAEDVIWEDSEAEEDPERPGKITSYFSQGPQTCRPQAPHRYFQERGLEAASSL
# [2] = molecular target: T2, mouse RNase H2 subunit A (Rnaseh2a), wild type (mouse) (UniProt Q9CWY8); assay: SEC; co-expressed His-tagged subunits, purified; Hiload 16/60 Superdex 75pg column in 20 mM Tris-HCl (pH 7.5), 1 mM EDTA, 150 mM NaCl; fractions checked by SDS-PAGE; both purified
# T2 sequence: T1 sequence with D40P, A211Y
# [3] = molecular target: T3, mouse RNase H2 subunit B (Rnaseh2b) (mouse) (UniProt Q80ZV0); assay: as above
# T3 sequence: B1 chain
Binder,binding [1],binding [2],binding [3]
B1,binds,binds,
B2,binds,binds,binds
